Experimental findings from PubChem BioAssay AID493014 (National Center for Advancing Translational Sciences (NCATS), 2011) are described below.

This assay is described as follows: qHTS Assay to Find Inhibitors of Chronic Active B-Cell Receptor Signaling. The settings on record: ABC-DLBCL IkBa-CBG/CBR reporter, luminescence ratio (green luciferase fused to IkBa over red control in TMD8 lymphoma cells), 4 h. In a few lines: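 TMD8 ABC-DLBCL cells carrying doxycycline-inducible green luciferase fused to IkappaBalpha plus unfused red luciferase were exposed to compounds (up to 46 uM) for 4 hrs at 37C. Activity came from the overlap-corrected green/red luminescence ratio.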
A general note: Quantitative high-throughput screening tests each substance at several concentrations.

Setting [1] is: measured here: CBR red luminescence, cell number.
[2] abbreviates: measured here: IkBa-CBG green luminescence.

The other results are listed elsewhere or left out. The main result of the screen is listed elsewhere. These columns were measured beside it and carry no call. Compounds called inactive in the main read-out are mostly missing here. Potencies come from curve fits of mixed quality, noted in brackets.

One may read the AC50 as the concentration at which the activity in the assay is half-maximal. Take `O=S(=O)(NC1CCCCC1N1CCN(c2cccc(Cl)c2)CC1)c1ccccc1` (stereo unspecified): the AC50 under setting [1] was 0.631 µM [falling, partial curve, poor fit].

As for `Cn1cc([N+](=O)[O-])c(C(=O)Nc2cc(Oc3ccccc3)cc([N+](=O)[O-])c2)n1`, the AC50 under setting [1] was 5.17 µM [falling, full curve].

Regarding `COC(=O)c1sccc1NC(=O)Nc1cccc(C(C)=O)c1`, the half-maximal activity concentration (AC50) under setting [1] was 35.5 µM [falling, single point].

Turning to `Cc1ccc(S(=O)(=O)N(CC(=O)NCC2CCCO2)C2CCCCC2)cc1` (stereo unspecified), the concentration at half-maximal activity (AC50) under setting [1] was 2.82 µM [rising, full curve, poor fit].

On to `N#Cc1c(N)nc2c(c1-c1ccc(F)cc1)CCC2`, for which the AC50 under setting [1] is 35.5 µM [falling, single point] and the AC50 under setting [2] is 3.55 µM [rising, full curve, poor fit].

As to `O=C1OC(c2ccccc2)=C/C1=C/c1cccs1`, the AC50 under setting [1] is 20 µM [falling, single point].

Take `CCOC(=O)C1(CC2CC2)CCN(C(=O)c2cc(OC)nc3ccccc23)CC1`: under setting [1], the AC50 is 2 µM [rising, partial curve].

Turning to `Cc1ccc(-c2sc(-c3ccccc3)nc2CC(=O)Nc2ccccc2F)cc1`, the concentration at half-maximal activity (AC50) under setting [1] is 0.0103 µM [rising, full curve, poor fit].

Consider `COc1ccc(C(=O)OCC(=O)c2ccc(S(=O)(=O)N3CCCCC3)cc2)c(OC)c1`, for which the AC50 under setting [1] is 0.731 µM [rising, full curve, poor fit].

Regarding `Cc1ccccc1CS(=O)(=O)c1nnc([C@H](CC(C)C)NC(=O)OC(C)(C)C)o1`, the AC50 under setting [1] was 11.2 µM [falling, partial curve, poor fit] and the AC50 under setting [2] was 11.2 µM [rising, partial curve, poor fit].

For the compound `COc1cc(NS(=O)(=O)c2ccc(NC(=O)CSC3=NCCS3)cc2)nc(OC)n1`, the half-maximal activity concentration (AC50) under setting [1] was 22.4 µM [falling, partial curve, poor fit].

Turning to `CCN(CC)c1ccc(/C=N/NC(=O)C(O)(c2ccccc2)c2ccccc2)o1`, the half-maximal activity concentration (AC50) under setting [2] is 20.6 µM [falling, single point].

For `O=C(O)CC1SC(=Nc2cccc(O)c2)NC1=O` (stereo unspecified), the concentration at half-maximal activity (AC50) under setting [1] is 20.6 µM [rising, partial curve, poor fit].

With `O=C(CNCc1ccccc1Cl)Nc1ccc2c(c1)OCCO2`, under setting [1], the AC50 was 4.47 µM [falling, full curve, poor fit].

Turning to `Cc1nn(Cc2ccccc2)c(C)c1NC(=O)CSc1nc(-c2ccccc2)nc2c1cnn2-c1ccccc1`, under setting [1], the concentration at half-maximal activity (AC50) is 35.5 µM [falling, partial curve, poor fit].

On to `Nc1cccc(-c2nc3ccccc3[nH]2)c1`, for which the concentration at half-maximal activity (AC50) under setting [1] was 32.6 µM [falling, single point].

Regarding `O=C(O)c1ccc(Cl)c(NCc2ccncc2)c1`, the half-maximal activity concentration (AC50) under setting [1] is 0.794 µM [falling, full curve, poor fit].

With `COc1ccc(C(=O)Nc2ccc(-c3ccc(C)o3)cc2)cc1S(=O)(=O)N1CCOCC1`, the concentration at half-maximal activity (AC50) under setting [1] was 23.1 µM [falling, single point].

Regarding `CCO/C(C)=N/n1c2nc3ccccc3nc2c2c(=O)n(Cc3ccccc3Cl)c(C)nc21`, under setting [1], the AC50 is 15.8 µM [falling, partial curve, poor fit].

With `Cc1ccc(NC(CC(=O)c2ccccc2)c2ccc(F)cc2)cc1` (stereo unspecified), the AC50 under setting [1] is 12.6 µM [rising, single point].

Regarding `COc1cc(OC)cc(C(=O)Nc2nnc(Cc3ccc(OC)c(OC)c3)s2)c1`, under setting [1], the AC50 was 35.5 µM [rising, single point].

For the compound `CCOC(=O)/C(=C\c1cccnc1)C(=O)c1cc(C(C)=O)c(Nc2ccccc2)s1`, the AC50 runs as follows: under setting [1], 13 µM [falling, partial curve]; under setting [2], 32.6 µM [rising, partial curve, poor fit].

Turning to `N#C/C(=C\c1ccccc1C(F)(F)F)C(=O)Nc1ccccc1`, the AC50 under setting [1] is 29.1 µM [rising, single point].

On to `CC1CCCCN1Cc1c(O)ccc2c(=O)c(-c3nc4ccccc4s3)coc12` (stereo unspecified), for which the AC50 under setting [1] is 35.5 µM [falling, single point].

Turning to `O=S(=O)(c1cccc(F)c1)N1CCN(c2nc(-c3cccnc3)nc3ccccc23)CC1`, the half-maximal activity concentration (AC50) under setting [1] was 16.4 µM [rising, single point].

Turning to `COc1ccc(NC2CCCN(C(=O)c3ccncc3)C2)cc1` (stereo unspecified), under setting [1], the AC50 was 35.5 µM [falling, partial curve, poor fit].

As for `O=S(=O)(NCc1ccc(F)cc1)c1ccc(-c2cnc(C3CC3)o2)cc1`, under setting [1], the AC50 was 17.8 µM [falling, single point].

Consider `CCC(=O)c1ccc(OCC(O)Cn2nc(C)c(C(C)=O)c2C)cc1` (stereo unspecified), for which, under setting [1], the AC50 was 22.4 µM [rising, partial curve, poor fit].

In the case of `CC(=O)c1ccc(NC(=S)NC(C)c2ccc(Cl)cc2Cl)cc1` (stereo unspecified), under setting [1], the half-maximal activity concentration (AC50) was 35.5 µM [falling, single point].

Turning to `O=[N+]([O-])c1ccc2nc(-c3ccccc3)oc2c1`, under setting [1], the AC50 is 1.12 µM [rising, full curve].

On to `Cc1ccccc1OCC(=O)Nc1ccc2c(c1)C(=O)N(CCC(=O)O)C2=O`, for which, under setting [1], the AC50 was 11.2 µM [falling, partial curve, poor fit].

On to `Cc1cc(C)n2nc(C(=O)N3CCCC(N4CCN(c5ccccc5C)CC4)C3)cc2n1` (stereo unspecified), for which the AC50 under setting [1] was 14.1 µM [rising, partial curve, poor fit].

`COC(=O)c1ccc(CNC(=O)Cn2cnnn2)cc1`: under setting [1], the AC50 was 0.112 µM [rising, full curve, poor fit].

Regarding `CC(=O)c1ccc(N2CCN(S(=O)(=O)c3ccc4c5c3CC(=O)N5CC(C)S4)CC2)cc1` (stereo unspecified), the AC50 under setting [1] was 6.31 µM [falling, single point].

On to `CCOC(=O)N1CCN(C(=O)c2ccc3c(c2)N(CC)CCS3)CC1`, for which, under setting [1], the AC50 was 20.6 µM [rising, partial curve, poor fit].

Take `C=CCNC(=O)c1cc(-c2ccc3c(c2)OCO3)on1`: the AC50 under setting [1] is 2.24 µM [falling, partial curve].

Regarding `CCCn1c2ccccc2c2nnc(SCc3[nH]c(=O)[nH]c3C(=O)CCCCC(=O)OCC)nc21`, the half-maximal activity concentration (AC50) under setting [1] was 8.2 µM [falling, partial curve, poor fit].

With `COc1cc(O)c2c(c1)OC(c1ccc(O)cc1)CC2=O` (stereo unspecified), the AC50 under setting [1] was 14.1 µM [falling, single point].

As for `Cc1cc(Nc2nnnn2-c2ccccc2)n(-c2ccccc2)n1`, under setting [1], the AC50 was 35.5 µM [falling, single point].

Regarding `CCN(CC)CCN(C(=O)c1ccc2c(c1)CCCC2)c1nc2ccc(F)cc2s1`, the AC50 under setting [1] was 22.4 µM [falling, partial curve, poor fit].

For the compound `CC/C(C)=N\NC(=O)CNC(=O)c1ccc(Cl)cc1Cl`, under setting [2], the AC50 was 25.1 µM [falling, partial curve, poor fit].

Turning to `Cc1ccccc1-n1nc(C)c2cc(C(=O)N3CCN(S(=O)(=O)c4ccccc4)CC3)sc21`, the half-maximal activity concentration (AC50) under setting [1] was 0.58 µM [falling, partial curve, poor fit].

As for `O=C(NNC(=O)C1CC=CCC1)c1ccccc1O` (stereo unspecified), under setting [1], the AC50 was 7.08 µM [falling, partial curve].

On to `O=C(Nc1cccc(S(=O)(=O)C(F)F)c1)c1ccc(S(=O)(=O)N2CCCC2)cc1`, for which, under setting [1], the AC50 was 2 µM [rising, partial curve, poor fit].

For the compound `Cc1cccc(CSCCNC(=O)CCSc2ccccc2)c1`, the AC50 under setting [1] was 29.1 µM [falling, single point].

As for `Cc1cc(C)cc(NC(=O)COC(=O)c2ccc(CN3CCCC3=O)cc2)c1`, the concentration at half-maximal activity (AC50) under setting [1] was 2.31 µM [rising, partial curve, poor fit].

In the case of `O=C(Nc1cc(C(F)(F)F)ccc1Cl)C(Sc1ccccn1)c1ccccc1` (stereo unspecified), the concentration at half-maximal activity (AC50) under setting [1] is 11.2 µM [rising, partial curve].

In the case of `COC(=O)c1cc(CSC(=N)N)ccc1OCCC(C)C`, under setting [1], the AC50 is 17.8 µM [falling, single point].

Turning to `Clc1ccc(Oc2cccc(/C=N/n3cnnc3)c2)cc1`, the AC50 reads like this: under setting [1], 18.4 µM [rising, single point]; under setting [2], 23.1 µM [falling, single point].

As for `CSc1ccccc1NC(=O)CN(C)C(=O)COc1cccc2cccnc12`, under setting [2], the AC50 is 18.4 µM [falling, single point].

Regarding `C=CCN1CC(c2nc3ccccc3n2Cc2cccc3ccccc23)CC1=O` (stereo unspecified), the AC50 under setting [1] was 35.5 µM [falling, single point].

With `O=C1C=C(O)c2c(O)cccc2C1=O`, the AC50 under setting [1] is 35.5 µM [falling, single point].

In the case of `COCCOCCOCCC(=O)NC1CC2CCC1(C)C2(C)C` (stereo unspecified), the half-maximal activity concentration (AC50) under setting [1] is 35.5 µM [rising, single point].

On to `CN(CC(=O)Nc1ccccc1C(=O)NC1CC1)Cc1ccc(N(C)C)cc1`, for which the half-maximal activity concentration (AC50) is 11.6 µM [rising, partial curve, poor fit] under setting [1] and 14.6 µM [falling, partial curve, poor fit] under setting [2].

For `O=C(CSc1ccccc1)Nc1nnc(-c2ccco2)o1`, under setting [1], the half-maximal activity concentration (AC50) was 18.4 µM [falling, single point].

Consider `O=S(Cc1ccc(Br)cc1)Cc1nnc(SCc2c(F)cccc2Cl)n1-c1ccccc1` (stereo unspecified), for which the AC50 under setting [1] is 23.1 µM [falling, single point].

As for `CNCCC=C1c2ccccc2CCc2ccccc21`, under setting [1], the concentration at half-maximal activity (AC50) was 32.6 µM [falling, partial curve, poor fit].

Turning to `CN(c1ccc(O)cc1)c1nc(-c2ccccc2)cs1`, the AC50 under setting [1] is 11.6 µM [falling, partial curve, poor fit].

`CN(Cc1ccccc1)S(=O)(=O)c1ccc(OCC(=O)Nc2cccc([N+](=O)[O-])c2)cc1`: the AC50 under setting [1] was 6.51 µM [falling, single point].

With `Cc1cccc(C(=O)N[C@H](C(=O)OCc2cc(=O)n3c(n2)sc2ccccc23)C(C)C)c1`, the concentration at half-maximal activity (AC50) under setting [1] is 29.1 µM [falling, single point].

With `CC(CCOC1=NS(=O)(=O)c2ccccc21)NC(=O)C(=O)Nc1ccccc1` (stereo unspecified), the concentration at half-maximal activity (AC50) under setting [1] is 10 µM [falling, partial curve].
